Assay [1] concerns the target T1, GST-Rtt106 (S. cerevisiae) (UniProt P40161).
T1 sequence: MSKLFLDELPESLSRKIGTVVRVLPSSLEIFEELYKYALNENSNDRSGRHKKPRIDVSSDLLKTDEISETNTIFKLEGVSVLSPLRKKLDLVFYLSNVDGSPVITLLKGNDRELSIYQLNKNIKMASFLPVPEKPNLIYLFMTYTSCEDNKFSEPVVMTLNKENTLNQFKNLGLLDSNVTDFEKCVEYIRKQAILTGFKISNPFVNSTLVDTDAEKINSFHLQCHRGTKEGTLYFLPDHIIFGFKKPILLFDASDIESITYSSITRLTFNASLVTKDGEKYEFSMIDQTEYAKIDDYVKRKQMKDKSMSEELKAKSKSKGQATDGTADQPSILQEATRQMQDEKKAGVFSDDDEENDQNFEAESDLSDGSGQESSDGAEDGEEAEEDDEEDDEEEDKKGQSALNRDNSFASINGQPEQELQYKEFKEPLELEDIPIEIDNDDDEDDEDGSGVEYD
In words: pull-down; GST-Rtt106 on Glutathione Sepharose beads (moles equivalent to 5 ug GST) incubated with 2 mg total yeast whole cell extract protein, 2 h at 4°C; 40 mM HEPES pH 7.5, 150 mM NaCl, 0.1% Tween 20, 10% glycerol; TAP-tagged subunit detected by PAP-HRP western blot; only the target purified. (In general: Immunoblotting shows a protein as a band on a membrane.)

The chains behind the UniProt entries cited, without tags or fusion partners.
UniProt P43554: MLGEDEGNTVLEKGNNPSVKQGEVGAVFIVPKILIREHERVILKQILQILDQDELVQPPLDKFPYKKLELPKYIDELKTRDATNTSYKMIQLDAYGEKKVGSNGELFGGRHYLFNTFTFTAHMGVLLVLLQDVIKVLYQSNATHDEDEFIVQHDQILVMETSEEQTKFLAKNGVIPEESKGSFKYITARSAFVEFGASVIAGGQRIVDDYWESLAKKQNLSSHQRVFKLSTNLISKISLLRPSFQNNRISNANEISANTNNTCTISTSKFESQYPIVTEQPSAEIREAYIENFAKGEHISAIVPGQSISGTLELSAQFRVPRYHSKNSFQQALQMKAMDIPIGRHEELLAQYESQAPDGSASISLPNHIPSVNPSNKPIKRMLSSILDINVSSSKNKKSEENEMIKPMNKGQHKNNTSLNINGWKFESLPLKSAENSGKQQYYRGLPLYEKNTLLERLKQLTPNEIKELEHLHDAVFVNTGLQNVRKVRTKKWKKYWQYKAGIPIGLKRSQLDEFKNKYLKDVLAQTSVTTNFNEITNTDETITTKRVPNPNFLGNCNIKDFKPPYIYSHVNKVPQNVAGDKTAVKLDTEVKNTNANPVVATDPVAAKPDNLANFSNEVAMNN
UniProt P43609: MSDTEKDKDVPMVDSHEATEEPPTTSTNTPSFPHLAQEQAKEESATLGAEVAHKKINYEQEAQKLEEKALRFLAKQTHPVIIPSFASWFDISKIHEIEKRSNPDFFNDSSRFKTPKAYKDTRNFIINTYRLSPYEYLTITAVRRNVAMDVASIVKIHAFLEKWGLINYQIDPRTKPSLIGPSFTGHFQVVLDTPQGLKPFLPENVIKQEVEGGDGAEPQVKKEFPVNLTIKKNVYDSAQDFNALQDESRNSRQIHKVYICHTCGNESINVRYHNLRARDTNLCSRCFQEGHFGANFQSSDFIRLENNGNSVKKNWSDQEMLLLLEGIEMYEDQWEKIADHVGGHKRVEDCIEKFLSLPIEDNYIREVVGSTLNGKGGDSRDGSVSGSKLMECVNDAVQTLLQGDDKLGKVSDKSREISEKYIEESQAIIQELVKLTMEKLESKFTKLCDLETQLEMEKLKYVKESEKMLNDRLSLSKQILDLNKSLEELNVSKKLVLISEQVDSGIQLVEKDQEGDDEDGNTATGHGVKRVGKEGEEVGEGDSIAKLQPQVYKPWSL
UniProt P18480: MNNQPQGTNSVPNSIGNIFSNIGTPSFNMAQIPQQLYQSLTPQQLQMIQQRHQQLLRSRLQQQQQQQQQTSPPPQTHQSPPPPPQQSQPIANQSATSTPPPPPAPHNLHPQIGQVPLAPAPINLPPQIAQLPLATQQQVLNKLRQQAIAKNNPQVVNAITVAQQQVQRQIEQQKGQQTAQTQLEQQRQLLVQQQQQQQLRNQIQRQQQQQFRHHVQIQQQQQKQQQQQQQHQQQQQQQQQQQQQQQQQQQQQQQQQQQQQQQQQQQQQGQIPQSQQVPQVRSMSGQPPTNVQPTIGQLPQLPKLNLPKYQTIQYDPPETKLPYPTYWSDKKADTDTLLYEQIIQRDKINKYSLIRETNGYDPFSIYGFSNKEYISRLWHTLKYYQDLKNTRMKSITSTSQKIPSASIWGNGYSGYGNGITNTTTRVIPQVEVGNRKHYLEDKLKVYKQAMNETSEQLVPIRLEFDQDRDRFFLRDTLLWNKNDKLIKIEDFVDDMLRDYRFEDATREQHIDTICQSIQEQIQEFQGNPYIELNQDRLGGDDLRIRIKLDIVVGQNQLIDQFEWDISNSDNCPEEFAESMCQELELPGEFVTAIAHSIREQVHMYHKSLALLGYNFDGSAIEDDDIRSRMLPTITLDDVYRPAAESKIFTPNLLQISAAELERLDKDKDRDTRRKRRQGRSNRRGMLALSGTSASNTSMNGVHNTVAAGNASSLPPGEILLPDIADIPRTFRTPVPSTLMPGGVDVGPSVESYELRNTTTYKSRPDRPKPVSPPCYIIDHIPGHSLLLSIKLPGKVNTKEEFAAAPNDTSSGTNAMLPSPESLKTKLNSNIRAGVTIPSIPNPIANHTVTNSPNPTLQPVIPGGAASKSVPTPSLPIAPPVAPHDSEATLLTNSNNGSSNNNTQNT

Assay [2] concerns the target T2, Rtt106-TAP (S. cerevisiae (endogenous in BY4741)) (UniProt P40161).
T2 sequence: T1 sequence
In words: co-IP; yeast whole cell extract, 1 mg protein, Rtt106-TAP immunoprecipitated with anti-Protein A antibody (overnight, 4°C) and Protein A beads, 50 ug/mL ethidium bromide; 40 mM HEPES pH 7.5, 150 mM NaCl, 0.1% Tween 20, 10% glycerol; Snf5-HA detected by anti-HA western blot.

For assay [3], the target named is Swp82-TAP (S. cerevisiae (endogenous in BY4741)) (UniProt P43554). In words: co-IP; yeast whole cell extracts, TAP-tagged subunit immunoprecipitated with anti-Protein A antibody (2 h) and Protein A beads, with ethidium bromide; 50 mM Tris pH 8.0, 150 mM NaCl, 1% NP40, 10% glycerol; Rtt106-HA detected by anti-HA western blot.
The target of assay [4] is Rsc8-TAP (S. cerevisiae (endogenous in BY4741)) (UniProt P43609). The description is as above.

Results are given in words; binding and its absence hold for the method and conditions named. In cells and extracts the contact can be indirect. Some results given as binding are weak or reduced against the parent protein; the word gives no strength. For part of these data: Where a sequence is shown, tags or fusion partners need not be part of it.

Data on 5 molecules can be found in article PMC3115976.

Regarding Hir2-TAP (from UniProt P32480 1-875), the binding result in assay [1] was “binds”. Regarding Rsc8-TAP (from UniProt P43609 1-557), the binding result in assay [1] is listed as “binds”. Snf5-HA (from UniProt P18480 1-905): the binding result in assay [2] was “binds”. As to Swp82-TAP (from UniProt P43554 1-623), the binding entry in assay [1] is “binds”.

B1: Rtt106-HA (protein, UniProt P40161 1-455)
chain: T1 sequence
As to B1, the binding result in assay [3] and in assay [4] was “binds” throughout.
